Measurements as given in patent US11246949B2, “Imaging contrast agents and uses thereof” (The Research Foundation for The State University of New York, priority 2011, dated 2022).
Several values for one entry are separate records, joined by “and”; a condition that tells them apart may be missing. Equal entries are not always repeated.

Key:
[1] = Benzoate hydroxylation (reactive oxygen species generation); settings: for Benzoate hydroxylation: 10 μM complex, 1.00 mM benzoate, 50 μM ascorbate, 50 μM H2O2, 100 mM NaCl, 20 mM HEPES, pH 7.5, 37° C., 1 hr
[2] = 1H NMR proton resonance width, suitability for MRSI; format: physicochemical; settings: for MRSI (narrow proton resonances): Table 5
[3] = CEST spectra on NMR spectrometer (paraCEST peak); format: physicochemical; settings: for paraCEST peak: Table 5; for maximum CEST position: 8 mM, 20 mM HEPES pH 6.85, 100 mM NaCl, B1=960 Hz, 400 MHz
[4] = Effective magnetic moment by Evans' method; format: physicochemical
[5] = Temperature dependence of non-exchangeable proton resonances (1H NMR, thermometry); format: physicochemical
[6] = CEST imaging of phantoms on 4.7 Tesla MRI scanner; settings: 2-8 mM, 37° C., 20 mM HEPES, 100 mM NaCl, 4.7 T
[7] = Fe(L1): 100 mM NaCl in D2O, pH 7.4, Fe(L2): D2O, pH 7.0

Row | SMILES | Benzoate hydroxylation [1] | MRSI (narrow proton resonances) [2] | paraCEST peak [3] | CEST peak position [3] | also measured
1 | O=C([O-])CN(CCN(CC(=O)[O-])CC(=O)[O-])CC(=O)[O-].[Fe+3] [Fe(EDTA), reference compound] | 88 ± 2.5 % standard |  |  |  | 
2 | CC(O)CN1CCN(CC(C)O)CCN(CC(C)O)CCN(CC(C)O)CC1.[Fe+2] (stereo not drawn) [Fe(L6)] |  | Possible | 54 ppm |  | 
3 | Cc1nc(CN2CCN(Cc3ccc(N)c(C)n3)CCN(Cc3ccc(N)c(C)n3)CC2)ccc1N.[Fe+2] [Fe(L2)] |  | Yes | 6 ppm | 6 ppm | proton resonance width / suitability for MRSI [2]: suitable for MRSI; effective magnetic moment ([4]; 25° C.): 5.8 Bohr-Magnetons; effective magnetic moment [4, 7]: 5.8 BM; CT/FWHM ([5]; iron(II) macrocyclic complexes): 2.44 and 1.53; Δ ([5]; iron(II) macrocyclic complexes): 201 ppm; FWHM ([5]; linewidth, iron(II) macrocyclic complexes): 0.388; pH dependence of proton chemical shifts ([5]; pH 6.5-8): independent of pH; linewidth of non-exchangeable proton resonances ([5]; preliminary data): 250 Hz; CT ([5]; temperature coefficient, iron(II) macrocyclic complexes): 0.594 ppm/° C.
4 | CC(O)CN1CCNCCN(CC(C)O)CCNCC1.[Fe+2] (stereo not drawn) [Fe(L7)] |  | Yes | 170 ppm | 170 ppm | 
5 | Nc1cccc(CN2CCN(Cc3cccc(N)n3)CCN(Cc3cccc(N)n3)CC2)n1.[Fe+2] [Fe(L8)] |  | Yes | No |  | 
6 | NC(=O)CN1CCN(CC(N)=O)CCN(CC(N)=O)CC1.[Ni+2] [Ni(L1)] |  | No | 76 ppm |  | 
7 | NC(=O)CN1CCN(CC(N)=O)CCN(CC(N)=O)CCN(CC(N)=O)CC1.[Fe+2] [Fe(L4)] | 3.5 ± 0.2 % standard | No | 50 ppm |  | inertness towards hydroxylation of benzoate [1]: remarkably inert
8 | NC(=O)CN1CCN(CC(N)=O)CCN(CC(N)=O)CC1.[Fe+2] [Fe(L1)] | 8.2 ± 0.9 % standard | No | 69 ppm | 69 ppm | CEST in phantoms, dependence on concentration [6]: increases linearly with concentration; proton resonance width / suitability for MRSI [2]: not suitable for MRSI; effective magnetic moment ([4]; 25° C.): 5.1 Bohr-Magnetons; effective magnetic moment [4, 7]: 5.1 BM; maximum CEST position ([3]; 25° C.): 71 ppm; CEST effect, temperature comparison ([3]; 37° C. vs 25° C.): larger at 37 °C than at 25 °C; maximum CEST position ([3]; 37° C.): 69 ppm
9 | [Fe+2].c1ccc2[nH]c(CN3CCN(Cc4nc5ccccc5[nH]4)CCN(Cc4nc5ccccc5[nH]4)CC3)nc2c1 [Fe(L5)] |  | Possible | 52 ppm |  | 
